Data: PubChem BioAssay AID588590 (National Center for Advancing Translational Sciences (NCATS), 2011)
The whole screen tested about 390,000 compounds, of which about 4,000 (1%) were called active. The shares of active, inactive and inconclusive entries below differ from those in the screen. Calls follow the shape of the dose curve; as a rule, active = well fitted inhibition curve with a large enough effect; inconclusive = small, poorly fitted or top-dose-only effect, or another doubt; inactive = no such curve, though single readings can be large or run the other way. Potencies of inconclusive entries are doubtful fits and often do not repeat. Some compounds were tested as several samples or in several runs, with calls that do not always agree.

Chains of the proteins cited; added tags and fusions are not shown. Lines headed by an entry give the natural chain unless they say otherwise; changes in a name come on top.
UniProt Q9UNA4: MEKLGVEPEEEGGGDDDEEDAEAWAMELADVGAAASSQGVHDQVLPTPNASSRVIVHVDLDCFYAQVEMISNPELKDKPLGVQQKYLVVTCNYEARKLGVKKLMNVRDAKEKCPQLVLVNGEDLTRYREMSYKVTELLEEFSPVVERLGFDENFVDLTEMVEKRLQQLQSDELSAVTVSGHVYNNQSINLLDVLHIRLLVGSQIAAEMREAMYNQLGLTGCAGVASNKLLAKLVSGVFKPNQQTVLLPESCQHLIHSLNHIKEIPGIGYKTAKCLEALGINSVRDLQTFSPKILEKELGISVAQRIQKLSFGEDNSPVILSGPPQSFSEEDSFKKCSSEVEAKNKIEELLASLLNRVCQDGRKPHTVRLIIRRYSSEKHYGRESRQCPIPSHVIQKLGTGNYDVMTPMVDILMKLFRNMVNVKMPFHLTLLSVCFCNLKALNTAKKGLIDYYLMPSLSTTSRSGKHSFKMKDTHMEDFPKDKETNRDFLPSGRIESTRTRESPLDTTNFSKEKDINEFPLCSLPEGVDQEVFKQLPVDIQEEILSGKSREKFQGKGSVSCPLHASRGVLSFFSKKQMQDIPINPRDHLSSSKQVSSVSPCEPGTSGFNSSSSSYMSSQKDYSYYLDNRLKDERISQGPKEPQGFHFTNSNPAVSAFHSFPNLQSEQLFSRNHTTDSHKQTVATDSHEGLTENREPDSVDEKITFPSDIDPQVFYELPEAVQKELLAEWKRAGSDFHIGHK

biological target: DNA polymerase iota (Homo sapiens) (UniProt Q9UNA4); assay: qHTS for Inhibitors of Polymerase Iota; settings: Pol iota fluorescent replication assay, 10 min; series mostly up to 115 µM
Outline: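 Pol iota at 10 nM preincubated 15 min with compounds at room temperature; reaction started with fluorescent substrate, 50 nM final. Fluorescence read kinetically at 0 and 10 min; buffer-only wells as negative control.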
Potency is read from the fitted curve at half-maximal effect.

Potency, active:
O=C(O)COc1ccc(/C=C/C(=O)c2ccc3ccccc3c2)cc1 17.8 µM
COC(=O)C1N2C(=O)[C@@H](NC(=O)COc3ccccc3)[C@H]2SC1(C)C (some centres undefined) 79.4 µM
COc1cc(/C=N/NC(=O)c2ccccc2O)ccc1OCC(=O)Nc1ccccc1 28.2 µM
O=[N+]([O-])c1cc(-c2csc(NCCc3nc4cc(C(F)(F)F)ccc4n3CCCO)n2)ccc1Cl 12.6 µM
Cn1c2ccccc2c2cc(/C=N/NC(=O)c3cc(O)ccc3O)ccc21 10 µM

Potency, inactive:
O=C(N=C1SC2CS(=O)(=O)CC2N1c1ccc(OC(F)(F)F)cc1)C1CC1 (centres undefined)
Cc1nc(-c2ccc(F)cc2)sc1CCNC(=O)c1ccco1
COc1ccc(-c2nc3c(=O)n(C)c(=O)nc-3n(C)n2)cc1
Nc1nc2c(c(=O)[nH]1)CN(Cc1ccccc1)CC2
COc1ccc(CC(=O)O)cc1O
CCOC(=O)c1[nH]c(C)c(CCC(=O)Nc2ccc(N(CC)CC)cc2C)c1C
Cc1ccc(-c2c3c(=O)n(C)c(=O)n(C)c3c3c(C(F)(F)F)nc4ccccc4n23)cc1
O=C(NCc1ccccc1)C(c1ccncc1)N(C(=O)c1ccccn1)c1ccccc1 (centres undefined)
COc1ccc(-c2cc(C(F)(F)F)nc(SCC(=O)NCCc3ccc(OC)c(OC)c3)n2)cc1
O=C(c1ccco1)N1CCN(CCCCOc2cccc3ccccc23)CC1
Cc1nn(-c2ccccc2)c(N2CCCC2)c1/C=N/NC(=S)Nc1ccccc1F
C(=C1C=c2ccccc2=C1)c1ccc(N=Nc2ccc(C=C3C=c4ccccc4=C3)cc2)cc1
Cc1onc(-c2ccccc2)c1C(=O)Oc1cccnc1
Nc1ccn(CC(=O)N[C@H](CO)Cc2c[nH]c3ccccc23)c(=O)n1
O=C(Nc1ccc(Cl)cc1Cl)[C@@H]1CC=C[C@@H]2CCN(Cc3ccccc3)C(=O)[C@@H]21

Quoted at random: two compounds from above
Potency, inactive:
COc1ccc(CC(=O)O)cc1O
Nc1ccn(CC(=O)N[C@H](CO)Cc2c[nH]c3ccccc23)c(=O)n1

Following part.

Potency, inconclusive:
Cc1nc(C)c(C(=O)OC(C)C(=O)Nc2ccc(F)cc2)s1 (centres undefined) 6.31 µM [inhibitor, single point]
COc1ccccc1NC(=O)Nc1nc(-c2cccnc2)nc2ccccc12 3.98 µM [inhibitor, full curve, poor fit]
COC(=O)c1ccccc1NC1CC(=O)N(c2c(C)cccc2C)C1=O (centres undefined) 50.1 µM [inhibitor, partial curve, poor fit]
CCc1ccc(OCC(=O)OC(C)C(=O)Nc2ccc(Cl)cn2)cc1 (centres undefined) 44.7 µM [inhibitor, partial curve, poor fit]
O=C(c1ncn[nH]1)N1CCN(c2nc(-c3ccccc3)cs2)CC1 56.2 µM [inhibitor, partial curve, poor fit]
Cc1cc(/C=C/c2nc3ccccc3s2)ccc1N(C)C 89.1 µM [inhibitor, single point]
O=C(NCCNC1CCCCC1)c1ccco1 39.8 µM [inhibitor, partial curve]
Cc1cc(O)cc2c1C(=O)/C(=C/c1ccco1)O2 20 µM [inhibitor, full curve, poor fit]
CCc1sc(C(=O)Nc2ccc3c(c2)OCO3)cc1C 10 µM [inhibitor, full curve, poor fit]
Cc1ccc(S(=O)(=O)N/N=C/c2cc([N+](=O)[O-])ccc2O)cc1[N+](=O)[O-] 14.1 µM [inhibitor, partial curve, poor fit]
CC(=O)Oc1c(Br)cc(N(C(C)=O)S(=O)(=O)c2ccccc2)c2ccccc12 5.01 µM [inhibitor, full curve, poor fit]
CCOC(=O)c1ccccc1N1C(=O)CSC1=S 50.1 µM [inhibitor, partial curve, poor fit]
CCN1C[C@@H]2[C@@H]3C(=O)N(Cc4ccccc4)C(=O)[C@@H]3[C@](Cc3ccccc3)(C1=O)N2C(=O)c1ccc(C(F)(F)F)cc1 79.4 µM [inhibitor, single point]
COc1ccc(S(=O)(=O)N2CCN(C(=O)c3cc4c(s3)CCCC4)CC2)cc1 0.631 µM [inhibitor, partial curve, poor fit]
CCCc1cc(=O)n2[nH]c(-c3ccc(C)cc3)nc2n1 63.1 µM [inhibitor, partial curve, poor fit]
COc1ccc(CNC(=O)C[C@H]2C[C@H](C(=O)N3CCOCC3)[C@@]3(CCC4CCCC4)c4[nH]c5cc(-c6ccco6)ccc5c4CCN3C2=O)cc1OC 0.708 µM [inhibitor, full curve, poor fit]
NC(=O)c1c(NC(=O)CSc2nnc(Cc3ccccc3)n2Cc2ccco2)sc2c1CCC2 31.6 µM [inhibitor, partial curve, poor fit]
O=C(CCC(=O)Nc1ccc(F)cc1)N/N=C/c1ccc(O)cc1O 89.1 µM [inhibitor, single point]
Cc1cc(/C=C\c2ccc3cc(N(C)C)ccc3[n+]2C)c(C)n1-c1ccccc1 6.31 µM [inhibitor, full curve, poor fit]
O=C(CSc1nc(O)cc(=O)n1-c1ccccc1)Nc1ccc2c3c(cccc13)CC2 22.4 µM [inhibitor, full curve]
CCn1cc(C(=O)O)c(=O)c2cc(F)c(N3CCN(C(=S)NC(=O)c4c(OC)cccc4OC)CC3)cc21 25.1 µM [inhibitor, single point]
c1ccc(OCc2nnc3sc(C4COc5ccccc5O4)nn23)cc1 (centres undefined) 50.1 µM [inhibitor, partial curve, poor fit]
C[N+](C)=C1SCC(C)(/C=N/O)S1 (centres undefined) 35.5 µM [inhibitor, partial curve, poor fit]
COc1ccc(OCC(=O)NNC(=O)C(=O)Nc2ccc(C)cc2)cc1 112 µM [inhibitor, partial curve, poor fit]
CN(C)S(=O)(=O)c1ccc2c(c1)C(CC(=O)O)NC2=O (centres undefined) 100 µM [inhibitor, single point]
NC(=O)CN1CCN(c2nc(-c3ccc(F)cc3)cs2)CC1 39.8 µM [inhibitor, single point]
CCCCC1(C)OC(=O)C(=Cc2ccc(N(CC)CC)cc2)C(=O)O1 (centres undefined) 25.1 µM [inhibitor, full curve]
O=c1nc(N/N=C/c2ccco2)cn[nH]1 56.2 µM [inhibitor, partial curve, poor fit]
CCc1sc(C(=O)Nc2ccc(NC(C)=O)cc2)cc1C 112 µM [inhibitor, single point]
Cc1[nH]nc(SCC(=O)N(C)c2ccccc2)c1[N+](=O)[O-] 17.8 µM [inhibitor, single point]
O=C(NCc1ccc(F)cc1)c1cnc2sccn2c1=O 79.4 µM [inhibitor, single point]
O=C(Cn1nc(Cc2cccnc2)c2ccccc2c1=O)Nc1cccc(C(F)(F)F)c1 70.8 µM [inhibitor, single point]
CCCCn1nc(NC(=O)c2cccs2)c2cc3ccccc3nc21 17.8 µM [inhibitor, partial curve, poor fit]
Cc1c(OCC(=O)NC(Cc2c[nH]c3ccc(O)cc23)C(=O)O)ccc2c3c(c(=O)oc12)CCC3 (centres undefined) 28.2 µM [inhibitor, single point]
O=C(CSc1nnc(CNc2cccc(Cl)c2)o1)OC1CCCCC1 20 µM [inhibitor, full curve, poor fit]
CCCCn1c(=NC(C)=O)c(C#N)cc2c(=O)n3cccc(C)c3nc21 20 µM [inhibitor, partial curve, poor fit]
Cc1ccc(C)c(C(=O)COC(=O)Cn2c(C)csc2=O)c1 89.1 µM [inhibitor, partial curve, poor fit]
CCC1c2ccc(C)n2CCN1C(=O)Nc1cc(Cl)ccc1OC (centres undefined) 35.5 µM [inhibitor, partial curve, poor fit]
O=C(O)c1ccc(/C=C2\CCCc3c2nc2ccccc2c3C(=O)O)cc1 17.8 µM [inhibitor, single point]
CN(C)c1ccc(N=Nc2ccccc2Br)cc1 4.47 µM [inhibitor, full curve, poor fit]
COc1cc(/C=C2/SC(=Nc3ccc(O)cc3)NC2=O)ccc1O 79.4 µM [inhibitor, partial curve, poor fit]
COc1ccc(CNC(=O)CCCn2nc(C)n3ccnc3c2=O)cc1 2.82 µM [inhibitor, full curve, poor fit]
O=C(NC(=S)Nc1ccc(S(=O)(=O)Nc2nccs2)cc1)c1ccc(Br)o1 3.55 µM [inhibitor, single point]
C[C@H](CO)N1C[C@H](C)[C@@H](CN(C)S(=O)(=O)c2ccc(F)cc2)Oc2ccc(NC(=O)c3ccncc3)cc2C1=O 89.1 µM [inhibitor, single point]

A draw from above in order of number of heavy atoms, largest number first.
Potency, inconclusive:
CCn1cc(C(=O)O)c(=O)c2cc(F)c(N3CCN(C(=S)NC(=O)c4c(OC)cccc4OC)CC3)cc21 25.1 µM [inhibitor, single point]
COc1ccc(OCC(=O)NNC(=O)C(=O)Nc2ccc(C)cc2)cc1 112 µM [inhibitor, partial curve, poor fit]
COc1cc(/C=C2/SC(=Nc3ccc(O)cc3)NC2=O)ccc1O 79.4 µM [inhibitor, partial curve, poor fit]
